This note sets out measurements from publication PMC5762535, “Novel indazole-based small compounds enhance TRAIL-induced apoptosis by inhibiting the MKK7-TIPRL interaction in hepatocellular carcinoma” (Oncotarget, 2017).

The chains behind the UniProt entries cited, without tags or fusion partners.
UniProt O14733: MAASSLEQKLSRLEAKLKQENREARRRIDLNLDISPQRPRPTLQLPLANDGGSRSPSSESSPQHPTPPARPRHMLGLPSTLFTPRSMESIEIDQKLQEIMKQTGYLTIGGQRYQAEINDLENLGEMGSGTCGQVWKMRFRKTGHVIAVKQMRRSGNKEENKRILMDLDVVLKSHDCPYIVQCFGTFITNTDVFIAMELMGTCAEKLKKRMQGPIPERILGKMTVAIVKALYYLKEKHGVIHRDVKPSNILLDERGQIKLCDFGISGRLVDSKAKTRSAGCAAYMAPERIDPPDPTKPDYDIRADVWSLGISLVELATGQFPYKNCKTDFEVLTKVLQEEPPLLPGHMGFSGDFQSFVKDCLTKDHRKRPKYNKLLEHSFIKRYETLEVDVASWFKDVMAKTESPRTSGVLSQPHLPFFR

These are yes or no findings as the source states them, for the method shown. For some assays here: Binding seen in cells or lysates may run through a third protein. Some binding calls cover weakened binding; strength is not graded here. Tags and fused reporters may be left off the sequences shown.

In experiment [1] the target is GST-tagged mitogen-activated protein kinase kinase 7 (MKK7) (human) (UniProt O14733). Kind of experiment: ELISA; 96-well plates coated with GST-MKK7 in PBS-T (PBS, 0.05% Tween-20, 0.5% BSA); TIPRL-HRP in PBS-T added for 1 h; TMB, absorbance at 450 nm; used to screen small compounds at 10 uM; both purified.
Experiment [2] shares this target. In words: pull-down; 293T cells co-transfected with GST-MKK7 and HA-TIPRL for 24 h, then treated or not with TRT-0029 (10 uM) or TRT-0173 (20 uM) and/or TRAIL for 24 h; RIPA lysate on Glutathione Sepharose 4B; Western blot.

B1: His-tagged TOR signaling pathway regulator-like protein (TIPRL) conjugated with horseradish peroxidase (protein, UniProt O75663 1-272)
chain: MMIHGFQSSHRDFCFGPWKLTASKTHIMKSADVEKLADELHMPSLPEMMFGDNVLRIQHGSGFGIEFNATDALRCVNNYQGMLKVACAEEWQESRTEGEHSKEVIKPYDWTYTTDYKGTLLGESLKLKVVPTTDHIDTEKLKAREQIKFFEEVLLFEDELHDHGVSSLSVKIRVMPSSFFLLLRFFLRIDGVLIRMNDTRLYHEADKTYMLREYTSRESKISSLMHVPPSLFTEPNEISQYLPIKEAVCEKLIFPERIDPNPADSQKSTQVE
modifications: conjugated with horseradish peroxidase (HRP)
As to B1, the binding entry in experiment [1] is on record as “binds”.

B2: HA-tagged TOR signaling pathway regulator-like protein (TIPRL) (protein, UniProt O75663 1-272)
chain: MMIHGFQSSHRDFCFGPWKLTASKTHIMKSADVEKLADELHMPSLPEMMFGDNVLRIQHGSGFGIEFNATDALRCVNNYQGMLKVACAEEWQESRTEGEHSKEVIKPYDWTYTTDYKGTLLGESLKLKVVPTTDHIDTEKLKAREQIKFFEEVLLFEDELHDHGVSSLSVKIRVMPSSFFLLLRFFLRIDGVLIRMNDTRLYHEADKTYMLREYTSRESKISSLMHVPPSLFTEPNEISQYLPIKEAVCEKLIFPERIDPNPADSQKSTQVE
Regarding B2, the binding result in experiment [2] is “binds”.
